Paper PMC6472371
These are yes or no findings as the source states them, for the method shown. In cells and extracts the contact can be indirect. Here binding means that the protein was enriched with, or labelled near, the bait; the list need not be complete.

Sequences of proteins named here, by UniProt entry; tags and fusion partners are left off.
UniProt Q9H8M2: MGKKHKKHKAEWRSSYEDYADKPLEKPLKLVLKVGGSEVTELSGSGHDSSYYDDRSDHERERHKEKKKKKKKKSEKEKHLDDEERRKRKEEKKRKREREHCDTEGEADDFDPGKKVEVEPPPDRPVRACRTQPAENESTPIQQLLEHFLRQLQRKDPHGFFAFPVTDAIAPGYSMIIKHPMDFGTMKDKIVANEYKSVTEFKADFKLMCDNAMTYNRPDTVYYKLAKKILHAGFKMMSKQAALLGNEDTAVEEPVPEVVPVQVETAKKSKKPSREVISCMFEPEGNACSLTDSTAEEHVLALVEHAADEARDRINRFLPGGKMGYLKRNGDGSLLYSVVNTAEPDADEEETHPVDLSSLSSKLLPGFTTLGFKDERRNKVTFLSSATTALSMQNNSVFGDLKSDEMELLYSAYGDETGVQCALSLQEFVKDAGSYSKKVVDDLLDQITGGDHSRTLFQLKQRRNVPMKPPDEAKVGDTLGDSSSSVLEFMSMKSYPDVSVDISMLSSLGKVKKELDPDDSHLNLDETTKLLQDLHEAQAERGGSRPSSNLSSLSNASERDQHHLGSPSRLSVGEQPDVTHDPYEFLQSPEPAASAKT
UniProt P51532: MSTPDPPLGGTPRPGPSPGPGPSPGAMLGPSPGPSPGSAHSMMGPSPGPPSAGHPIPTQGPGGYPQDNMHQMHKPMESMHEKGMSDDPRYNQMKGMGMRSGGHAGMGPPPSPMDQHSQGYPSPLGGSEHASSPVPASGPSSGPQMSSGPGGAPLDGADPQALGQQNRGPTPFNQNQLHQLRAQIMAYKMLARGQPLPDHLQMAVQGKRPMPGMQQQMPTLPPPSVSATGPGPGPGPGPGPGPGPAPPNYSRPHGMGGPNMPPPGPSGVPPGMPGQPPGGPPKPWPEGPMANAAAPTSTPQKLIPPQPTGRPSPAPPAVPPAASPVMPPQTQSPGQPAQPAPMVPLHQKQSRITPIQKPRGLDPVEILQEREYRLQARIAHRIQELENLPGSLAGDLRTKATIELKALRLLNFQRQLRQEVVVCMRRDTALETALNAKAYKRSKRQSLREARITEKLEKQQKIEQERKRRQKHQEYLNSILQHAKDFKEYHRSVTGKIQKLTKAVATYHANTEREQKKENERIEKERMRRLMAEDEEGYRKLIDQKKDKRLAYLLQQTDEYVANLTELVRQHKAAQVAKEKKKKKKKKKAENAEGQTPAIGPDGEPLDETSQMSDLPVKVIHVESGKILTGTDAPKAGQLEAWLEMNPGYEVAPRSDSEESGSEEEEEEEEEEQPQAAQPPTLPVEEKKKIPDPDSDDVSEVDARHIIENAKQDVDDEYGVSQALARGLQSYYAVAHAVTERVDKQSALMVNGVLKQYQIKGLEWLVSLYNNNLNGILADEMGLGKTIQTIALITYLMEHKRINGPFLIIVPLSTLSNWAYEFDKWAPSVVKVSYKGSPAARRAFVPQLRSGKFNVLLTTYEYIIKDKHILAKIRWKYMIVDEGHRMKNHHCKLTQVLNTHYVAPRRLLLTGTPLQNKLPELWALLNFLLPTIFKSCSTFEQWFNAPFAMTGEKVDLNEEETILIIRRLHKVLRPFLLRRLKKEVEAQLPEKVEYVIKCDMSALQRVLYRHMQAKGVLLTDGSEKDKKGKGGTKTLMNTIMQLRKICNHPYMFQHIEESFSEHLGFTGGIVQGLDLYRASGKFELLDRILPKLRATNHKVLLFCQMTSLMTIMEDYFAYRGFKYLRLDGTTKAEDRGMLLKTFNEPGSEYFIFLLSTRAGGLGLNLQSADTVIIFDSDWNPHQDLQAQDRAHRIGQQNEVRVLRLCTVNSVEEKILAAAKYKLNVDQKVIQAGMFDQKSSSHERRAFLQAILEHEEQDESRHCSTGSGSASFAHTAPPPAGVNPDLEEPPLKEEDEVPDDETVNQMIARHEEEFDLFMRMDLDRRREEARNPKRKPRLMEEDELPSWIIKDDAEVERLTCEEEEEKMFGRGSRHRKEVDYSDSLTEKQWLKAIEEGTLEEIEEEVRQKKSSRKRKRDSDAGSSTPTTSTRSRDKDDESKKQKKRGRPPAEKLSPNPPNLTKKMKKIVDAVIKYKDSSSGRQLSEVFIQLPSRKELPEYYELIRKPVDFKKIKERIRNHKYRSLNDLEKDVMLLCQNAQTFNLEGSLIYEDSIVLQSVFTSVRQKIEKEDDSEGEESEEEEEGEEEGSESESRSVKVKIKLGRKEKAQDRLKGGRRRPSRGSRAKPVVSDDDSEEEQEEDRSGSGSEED
UniProt Q15532: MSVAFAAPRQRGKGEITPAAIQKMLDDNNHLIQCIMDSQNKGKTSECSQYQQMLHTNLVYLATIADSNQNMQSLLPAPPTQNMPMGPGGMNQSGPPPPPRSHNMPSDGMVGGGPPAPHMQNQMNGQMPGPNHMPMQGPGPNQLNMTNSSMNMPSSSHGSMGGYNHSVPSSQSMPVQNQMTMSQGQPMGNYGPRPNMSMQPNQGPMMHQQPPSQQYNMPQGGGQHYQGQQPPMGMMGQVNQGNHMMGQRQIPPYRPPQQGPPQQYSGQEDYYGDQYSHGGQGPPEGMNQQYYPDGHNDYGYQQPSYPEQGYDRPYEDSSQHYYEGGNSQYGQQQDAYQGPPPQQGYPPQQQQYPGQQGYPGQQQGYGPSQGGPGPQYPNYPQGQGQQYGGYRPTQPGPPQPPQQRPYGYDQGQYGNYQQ
UniProt Q9NZM4: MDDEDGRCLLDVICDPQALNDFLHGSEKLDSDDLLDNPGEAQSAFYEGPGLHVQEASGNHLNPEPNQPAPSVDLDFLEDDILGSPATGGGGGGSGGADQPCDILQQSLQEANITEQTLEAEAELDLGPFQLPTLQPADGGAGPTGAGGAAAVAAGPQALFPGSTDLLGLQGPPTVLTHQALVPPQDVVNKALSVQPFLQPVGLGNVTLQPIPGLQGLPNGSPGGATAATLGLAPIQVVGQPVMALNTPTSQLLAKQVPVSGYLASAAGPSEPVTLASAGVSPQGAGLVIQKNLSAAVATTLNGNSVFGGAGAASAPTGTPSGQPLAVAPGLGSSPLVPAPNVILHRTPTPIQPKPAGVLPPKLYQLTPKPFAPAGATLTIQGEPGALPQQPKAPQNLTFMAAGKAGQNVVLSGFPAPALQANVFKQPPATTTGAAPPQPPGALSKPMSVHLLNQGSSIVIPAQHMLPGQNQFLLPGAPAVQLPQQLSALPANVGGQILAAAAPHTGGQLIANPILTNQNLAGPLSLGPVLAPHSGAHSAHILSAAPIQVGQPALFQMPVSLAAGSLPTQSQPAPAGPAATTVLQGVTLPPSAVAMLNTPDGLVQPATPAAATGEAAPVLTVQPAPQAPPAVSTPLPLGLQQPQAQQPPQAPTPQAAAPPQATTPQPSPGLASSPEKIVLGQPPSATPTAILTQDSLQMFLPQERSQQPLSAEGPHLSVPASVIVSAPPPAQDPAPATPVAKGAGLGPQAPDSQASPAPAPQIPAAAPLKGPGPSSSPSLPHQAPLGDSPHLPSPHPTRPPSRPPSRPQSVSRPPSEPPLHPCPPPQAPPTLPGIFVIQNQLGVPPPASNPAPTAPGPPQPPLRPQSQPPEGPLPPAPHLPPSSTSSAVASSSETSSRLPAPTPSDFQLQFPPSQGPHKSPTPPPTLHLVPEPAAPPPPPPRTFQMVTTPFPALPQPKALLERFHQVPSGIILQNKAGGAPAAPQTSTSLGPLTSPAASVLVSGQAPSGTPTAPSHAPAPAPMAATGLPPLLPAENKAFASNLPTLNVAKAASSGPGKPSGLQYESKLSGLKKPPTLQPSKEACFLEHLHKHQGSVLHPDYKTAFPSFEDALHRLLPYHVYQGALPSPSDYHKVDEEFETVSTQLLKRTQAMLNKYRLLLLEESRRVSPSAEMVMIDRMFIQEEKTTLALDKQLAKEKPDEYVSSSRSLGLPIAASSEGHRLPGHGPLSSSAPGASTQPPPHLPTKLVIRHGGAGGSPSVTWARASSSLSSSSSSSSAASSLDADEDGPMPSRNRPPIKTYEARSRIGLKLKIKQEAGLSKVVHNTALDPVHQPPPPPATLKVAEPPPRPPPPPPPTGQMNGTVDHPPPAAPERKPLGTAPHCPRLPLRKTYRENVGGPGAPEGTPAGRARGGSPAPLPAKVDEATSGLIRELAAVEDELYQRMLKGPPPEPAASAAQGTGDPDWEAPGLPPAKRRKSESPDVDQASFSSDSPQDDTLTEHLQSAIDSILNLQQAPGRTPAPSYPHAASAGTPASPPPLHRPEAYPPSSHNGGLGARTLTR
UniProt Q6AI39: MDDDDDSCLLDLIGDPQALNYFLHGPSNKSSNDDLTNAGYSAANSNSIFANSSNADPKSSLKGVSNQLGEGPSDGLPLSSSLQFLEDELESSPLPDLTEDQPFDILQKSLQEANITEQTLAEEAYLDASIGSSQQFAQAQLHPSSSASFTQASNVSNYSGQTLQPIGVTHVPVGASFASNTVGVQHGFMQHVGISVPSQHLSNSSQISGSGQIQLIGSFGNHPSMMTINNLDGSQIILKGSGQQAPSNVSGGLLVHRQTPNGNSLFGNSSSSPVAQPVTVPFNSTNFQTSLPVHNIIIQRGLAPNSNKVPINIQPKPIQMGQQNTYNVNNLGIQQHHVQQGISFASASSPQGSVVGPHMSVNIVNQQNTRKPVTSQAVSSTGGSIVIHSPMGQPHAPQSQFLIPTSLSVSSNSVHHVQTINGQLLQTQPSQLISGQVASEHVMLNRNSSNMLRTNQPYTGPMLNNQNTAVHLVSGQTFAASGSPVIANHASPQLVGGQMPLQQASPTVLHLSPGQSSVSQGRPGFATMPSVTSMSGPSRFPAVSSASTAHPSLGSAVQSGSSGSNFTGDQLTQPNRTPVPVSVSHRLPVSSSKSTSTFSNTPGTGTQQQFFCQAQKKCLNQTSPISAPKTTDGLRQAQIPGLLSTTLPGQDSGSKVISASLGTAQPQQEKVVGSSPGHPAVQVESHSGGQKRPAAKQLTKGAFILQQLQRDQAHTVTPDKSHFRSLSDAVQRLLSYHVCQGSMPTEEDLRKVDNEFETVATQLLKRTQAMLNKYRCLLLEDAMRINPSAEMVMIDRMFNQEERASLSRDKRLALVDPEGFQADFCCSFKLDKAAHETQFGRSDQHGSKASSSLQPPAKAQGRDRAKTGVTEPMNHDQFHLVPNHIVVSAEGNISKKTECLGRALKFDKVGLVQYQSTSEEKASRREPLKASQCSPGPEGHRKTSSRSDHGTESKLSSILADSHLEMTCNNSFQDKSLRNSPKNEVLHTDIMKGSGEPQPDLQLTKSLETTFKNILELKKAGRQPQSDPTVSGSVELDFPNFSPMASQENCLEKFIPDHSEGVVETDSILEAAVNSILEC
UniProt Q96GM5: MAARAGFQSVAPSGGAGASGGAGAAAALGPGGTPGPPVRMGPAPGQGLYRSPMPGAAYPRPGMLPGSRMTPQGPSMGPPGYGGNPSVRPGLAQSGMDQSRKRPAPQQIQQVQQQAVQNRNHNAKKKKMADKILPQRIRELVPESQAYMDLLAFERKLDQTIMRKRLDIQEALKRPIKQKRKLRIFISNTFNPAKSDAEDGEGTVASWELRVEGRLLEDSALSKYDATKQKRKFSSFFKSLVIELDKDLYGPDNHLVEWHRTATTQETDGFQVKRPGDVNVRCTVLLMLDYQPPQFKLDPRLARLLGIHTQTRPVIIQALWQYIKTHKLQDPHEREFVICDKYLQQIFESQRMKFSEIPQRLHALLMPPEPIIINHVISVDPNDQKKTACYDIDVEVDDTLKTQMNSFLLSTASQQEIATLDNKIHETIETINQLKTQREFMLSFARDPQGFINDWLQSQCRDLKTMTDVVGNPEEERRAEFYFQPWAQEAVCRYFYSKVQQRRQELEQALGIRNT

Target: N-terminal green fluorescent protein (GFP)-tagged BRD9 protein (bromodomain-containing protein 9), HeLa stable line (UniProt Q9H8M2)
Test: affinity purification with mass spectrometry; label-free GFP pulldown with GFP-trap beads (Chromotek) of nuclear extracts of GFP-BRD9 HeLa against wild-type HeLa; 1 mg extract, 300 mM NaCl, 0.15% NP-40, 0.5 mM dithiothreitol, 20 mM HEPES-KOH pH 7.9, with ethidium bromide to prevent DNA-mediated interactions; LC-MS/MS

| binding | Substance |
| --- | --- |
| binds | SMARCA4 (endogenous, HeLa) (from UniProt P51532 1-1647) |
| binds | SS18 (endogenous, HeLa) (from UniProt Q15532 1-418) |

Further lines, the substance ahead of its results:

| Substance | binding |
| --- | --- |
| GLTSCR1 (endogenous, HeLa) (from UniProt Q9NZM4 1-1560) | binds |
| GLTSCR1L (endogenous, HeLa) (from UniProt Q6AI39 1-1079) | binds |
| SMARCD1 (endogenous, HeLa) (from UniProt Q96GM5 1-515) | binds |
